Test results reported in the supplement of paper PMC11006884.
The entries are a selection whose mix differs from that of the whole data set. The data scatter; read single values as rough.

By UniProt entry, the sequences of proteins in these tests, tags left out. Where a name states a change or a piece, a line headed by the entry shows the natural chain unless it says otherwise.
UniProt P55196: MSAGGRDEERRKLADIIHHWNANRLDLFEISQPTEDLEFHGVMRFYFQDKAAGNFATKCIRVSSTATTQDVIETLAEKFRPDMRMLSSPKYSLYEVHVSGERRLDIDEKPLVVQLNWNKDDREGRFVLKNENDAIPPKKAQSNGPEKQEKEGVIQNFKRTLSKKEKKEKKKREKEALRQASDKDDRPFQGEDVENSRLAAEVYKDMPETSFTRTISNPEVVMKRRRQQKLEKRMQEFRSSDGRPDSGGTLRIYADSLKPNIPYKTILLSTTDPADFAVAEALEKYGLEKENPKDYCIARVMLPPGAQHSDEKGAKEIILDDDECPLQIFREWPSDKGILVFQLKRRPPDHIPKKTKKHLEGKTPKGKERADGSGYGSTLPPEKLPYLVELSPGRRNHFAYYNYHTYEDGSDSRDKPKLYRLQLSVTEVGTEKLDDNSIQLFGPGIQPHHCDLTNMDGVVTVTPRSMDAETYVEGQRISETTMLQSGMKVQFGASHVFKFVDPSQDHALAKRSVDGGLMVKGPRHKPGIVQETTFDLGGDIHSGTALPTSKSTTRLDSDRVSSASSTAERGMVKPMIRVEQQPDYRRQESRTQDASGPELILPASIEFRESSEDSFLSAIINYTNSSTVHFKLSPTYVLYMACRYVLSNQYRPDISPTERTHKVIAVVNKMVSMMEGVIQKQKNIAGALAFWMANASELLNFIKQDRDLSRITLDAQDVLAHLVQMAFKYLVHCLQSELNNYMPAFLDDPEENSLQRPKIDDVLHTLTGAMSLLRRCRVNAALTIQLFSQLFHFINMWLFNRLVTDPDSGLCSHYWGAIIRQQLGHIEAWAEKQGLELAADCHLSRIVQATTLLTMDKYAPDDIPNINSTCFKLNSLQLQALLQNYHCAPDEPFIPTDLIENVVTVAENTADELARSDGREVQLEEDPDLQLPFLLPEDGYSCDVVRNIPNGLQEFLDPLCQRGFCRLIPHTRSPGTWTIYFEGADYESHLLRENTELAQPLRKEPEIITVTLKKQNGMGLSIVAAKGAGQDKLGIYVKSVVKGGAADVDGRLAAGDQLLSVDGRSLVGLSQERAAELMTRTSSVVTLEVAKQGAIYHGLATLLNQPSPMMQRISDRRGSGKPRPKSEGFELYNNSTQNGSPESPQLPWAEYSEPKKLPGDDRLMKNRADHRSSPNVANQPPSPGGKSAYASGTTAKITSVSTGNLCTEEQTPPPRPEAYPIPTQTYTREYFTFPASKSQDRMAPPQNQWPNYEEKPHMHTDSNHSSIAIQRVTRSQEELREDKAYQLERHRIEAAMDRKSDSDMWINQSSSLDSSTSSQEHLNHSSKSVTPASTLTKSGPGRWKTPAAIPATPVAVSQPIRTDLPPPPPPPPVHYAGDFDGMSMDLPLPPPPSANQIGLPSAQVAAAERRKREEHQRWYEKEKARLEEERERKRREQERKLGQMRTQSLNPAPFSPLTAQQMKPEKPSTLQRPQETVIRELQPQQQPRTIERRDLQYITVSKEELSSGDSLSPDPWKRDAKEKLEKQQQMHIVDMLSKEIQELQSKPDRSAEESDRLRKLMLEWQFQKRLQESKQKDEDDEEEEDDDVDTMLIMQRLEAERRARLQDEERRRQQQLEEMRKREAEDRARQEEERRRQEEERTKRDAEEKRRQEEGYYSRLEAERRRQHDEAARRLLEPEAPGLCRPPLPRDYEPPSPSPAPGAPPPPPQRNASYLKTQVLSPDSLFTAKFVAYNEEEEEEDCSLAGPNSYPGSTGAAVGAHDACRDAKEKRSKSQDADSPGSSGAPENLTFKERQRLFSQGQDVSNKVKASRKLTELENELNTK
UniProt P52597: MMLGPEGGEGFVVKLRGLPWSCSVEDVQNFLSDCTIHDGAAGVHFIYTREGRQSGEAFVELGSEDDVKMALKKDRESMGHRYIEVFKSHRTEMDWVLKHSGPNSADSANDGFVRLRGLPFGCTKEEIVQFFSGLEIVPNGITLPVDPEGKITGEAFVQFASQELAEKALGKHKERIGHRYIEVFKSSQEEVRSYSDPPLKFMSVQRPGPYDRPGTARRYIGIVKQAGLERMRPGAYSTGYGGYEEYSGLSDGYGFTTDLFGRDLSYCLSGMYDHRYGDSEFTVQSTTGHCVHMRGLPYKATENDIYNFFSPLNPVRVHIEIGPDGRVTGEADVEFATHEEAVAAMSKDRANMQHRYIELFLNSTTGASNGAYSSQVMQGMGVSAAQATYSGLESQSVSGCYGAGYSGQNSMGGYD
UniProt P53041: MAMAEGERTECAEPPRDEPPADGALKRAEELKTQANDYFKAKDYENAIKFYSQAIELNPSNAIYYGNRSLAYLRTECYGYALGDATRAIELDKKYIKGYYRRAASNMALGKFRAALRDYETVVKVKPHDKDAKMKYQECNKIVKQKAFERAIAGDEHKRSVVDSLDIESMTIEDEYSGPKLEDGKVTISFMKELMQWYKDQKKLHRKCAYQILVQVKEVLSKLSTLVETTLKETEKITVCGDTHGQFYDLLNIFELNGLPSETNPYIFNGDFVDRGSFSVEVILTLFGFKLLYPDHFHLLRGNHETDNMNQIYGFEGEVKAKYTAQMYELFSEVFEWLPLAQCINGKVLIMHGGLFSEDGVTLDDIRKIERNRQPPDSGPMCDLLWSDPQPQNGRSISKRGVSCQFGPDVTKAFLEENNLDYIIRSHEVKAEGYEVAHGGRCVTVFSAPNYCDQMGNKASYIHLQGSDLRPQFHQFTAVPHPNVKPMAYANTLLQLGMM
UniProt P57772: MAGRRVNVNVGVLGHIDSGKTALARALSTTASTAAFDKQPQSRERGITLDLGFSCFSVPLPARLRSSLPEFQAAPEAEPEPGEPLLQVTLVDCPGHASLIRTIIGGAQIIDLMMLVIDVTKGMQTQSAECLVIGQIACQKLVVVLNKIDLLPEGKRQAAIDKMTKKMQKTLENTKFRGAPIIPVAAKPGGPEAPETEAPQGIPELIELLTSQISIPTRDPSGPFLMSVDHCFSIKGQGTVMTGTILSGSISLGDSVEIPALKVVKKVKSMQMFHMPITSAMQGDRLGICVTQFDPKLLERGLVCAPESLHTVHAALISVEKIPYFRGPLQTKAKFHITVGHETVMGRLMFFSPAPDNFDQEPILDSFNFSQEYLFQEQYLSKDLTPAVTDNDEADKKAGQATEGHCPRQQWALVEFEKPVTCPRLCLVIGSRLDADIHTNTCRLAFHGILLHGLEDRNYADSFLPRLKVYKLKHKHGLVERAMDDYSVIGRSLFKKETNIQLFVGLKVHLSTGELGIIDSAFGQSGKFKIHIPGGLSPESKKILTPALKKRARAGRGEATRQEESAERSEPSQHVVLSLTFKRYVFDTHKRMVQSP
UniProt P53621: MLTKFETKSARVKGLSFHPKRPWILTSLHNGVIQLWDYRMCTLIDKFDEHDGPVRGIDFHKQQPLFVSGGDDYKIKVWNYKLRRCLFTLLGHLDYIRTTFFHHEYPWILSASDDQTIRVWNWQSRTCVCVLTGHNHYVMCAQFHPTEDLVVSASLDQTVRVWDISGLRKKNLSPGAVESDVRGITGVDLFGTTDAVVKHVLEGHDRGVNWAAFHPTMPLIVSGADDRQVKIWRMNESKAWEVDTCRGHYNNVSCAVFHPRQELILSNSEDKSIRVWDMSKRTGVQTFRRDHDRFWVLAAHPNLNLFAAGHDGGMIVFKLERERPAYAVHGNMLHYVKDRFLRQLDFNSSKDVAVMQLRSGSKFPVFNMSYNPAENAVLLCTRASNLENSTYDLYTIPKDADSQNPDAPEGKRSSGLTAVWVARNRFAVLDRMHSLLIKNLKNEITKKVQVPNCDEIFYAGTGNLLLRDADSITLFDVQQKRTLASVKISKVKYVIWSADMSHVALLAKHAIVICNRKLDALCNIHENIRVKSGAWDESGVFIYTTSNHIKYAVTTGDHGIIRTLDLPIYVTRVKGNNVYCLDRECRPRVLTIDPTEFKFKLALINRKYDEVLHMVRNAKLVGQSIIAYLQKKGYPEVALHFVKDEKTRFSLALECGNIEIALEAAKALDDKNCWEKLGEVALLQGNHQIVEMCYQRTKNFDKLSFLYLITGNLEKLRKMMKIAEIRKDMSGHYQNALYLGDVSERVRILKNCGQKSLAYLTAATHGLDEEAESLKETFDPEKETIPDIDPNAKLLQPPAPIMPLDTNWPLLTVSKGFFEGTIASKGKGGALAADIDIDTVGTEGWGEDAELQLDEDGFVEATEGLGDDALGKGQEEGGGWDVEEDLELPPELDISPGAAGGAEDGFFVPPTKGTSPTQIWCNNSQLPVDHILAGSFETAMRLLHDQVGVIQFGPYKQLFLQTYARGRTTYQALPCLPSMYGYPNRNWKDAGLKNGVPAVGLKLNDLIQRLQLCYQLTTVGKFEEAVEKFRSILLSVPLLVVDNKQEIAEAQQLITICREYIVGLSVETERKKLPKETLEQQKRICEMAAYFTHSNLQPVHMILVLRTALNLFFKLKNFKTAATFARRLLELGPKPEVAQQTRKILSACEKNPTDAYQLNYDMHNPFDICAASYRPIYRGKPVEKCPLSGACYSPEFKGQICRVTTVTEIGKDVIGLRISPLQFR
UniProt P60660, whole entry: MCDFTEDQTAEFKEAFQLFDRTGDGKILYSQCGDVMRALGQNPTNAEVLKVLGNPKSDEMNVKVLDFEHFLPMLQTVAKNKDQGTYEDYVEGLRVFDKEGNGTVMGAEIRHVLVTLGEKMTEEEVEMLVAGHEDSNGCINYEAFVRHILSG
UniProt P52732: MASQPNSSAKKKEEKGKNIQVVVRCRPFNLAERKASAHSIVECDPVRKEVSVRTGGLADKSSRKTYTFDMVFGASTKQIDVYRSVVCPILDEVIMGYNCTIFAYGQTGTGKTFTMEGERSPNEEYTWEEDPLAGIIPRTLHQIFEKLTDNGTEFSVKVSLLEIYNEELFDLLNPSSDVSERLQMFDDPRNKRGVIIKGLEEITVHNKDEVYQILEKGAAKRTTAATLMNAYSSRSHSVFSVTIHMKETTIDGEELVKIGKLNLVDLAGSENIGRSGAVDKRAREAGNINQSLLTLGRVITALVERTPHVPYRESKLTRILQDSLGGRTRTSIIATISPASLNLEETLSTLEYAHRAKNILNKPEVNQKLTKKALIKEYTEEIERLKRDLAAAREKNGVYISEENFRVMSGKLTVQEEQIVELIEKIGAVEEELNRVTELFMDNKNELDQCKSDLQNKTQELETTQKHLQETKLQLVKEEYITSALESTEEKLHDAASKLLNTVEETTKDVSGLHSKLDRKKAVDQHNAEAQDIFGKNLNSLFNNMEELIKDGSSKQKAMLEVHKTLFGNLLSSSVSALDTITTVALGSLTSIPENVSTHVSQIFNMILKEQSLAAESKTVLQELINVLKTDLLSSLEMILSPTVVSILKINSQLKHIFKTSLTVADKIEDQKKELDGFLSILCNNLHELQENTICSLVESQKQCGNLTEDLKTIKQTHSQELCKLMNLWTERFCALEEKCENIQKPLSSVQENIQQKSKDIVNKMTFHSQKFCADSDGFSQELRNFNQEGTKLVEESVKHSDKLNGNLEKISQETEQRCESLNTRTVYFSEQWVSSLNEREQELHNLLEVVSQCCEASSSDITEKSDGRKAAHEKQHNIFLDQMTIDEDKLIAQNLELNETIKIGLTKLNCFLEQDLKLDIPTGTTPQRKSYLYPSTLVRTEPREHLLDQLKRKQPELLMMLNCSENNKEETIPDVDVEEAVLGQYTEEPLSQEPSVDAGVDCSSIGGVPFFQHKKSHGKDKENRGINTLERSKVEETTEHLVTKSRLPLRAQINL
UniProt P53350, whole entry, looked up: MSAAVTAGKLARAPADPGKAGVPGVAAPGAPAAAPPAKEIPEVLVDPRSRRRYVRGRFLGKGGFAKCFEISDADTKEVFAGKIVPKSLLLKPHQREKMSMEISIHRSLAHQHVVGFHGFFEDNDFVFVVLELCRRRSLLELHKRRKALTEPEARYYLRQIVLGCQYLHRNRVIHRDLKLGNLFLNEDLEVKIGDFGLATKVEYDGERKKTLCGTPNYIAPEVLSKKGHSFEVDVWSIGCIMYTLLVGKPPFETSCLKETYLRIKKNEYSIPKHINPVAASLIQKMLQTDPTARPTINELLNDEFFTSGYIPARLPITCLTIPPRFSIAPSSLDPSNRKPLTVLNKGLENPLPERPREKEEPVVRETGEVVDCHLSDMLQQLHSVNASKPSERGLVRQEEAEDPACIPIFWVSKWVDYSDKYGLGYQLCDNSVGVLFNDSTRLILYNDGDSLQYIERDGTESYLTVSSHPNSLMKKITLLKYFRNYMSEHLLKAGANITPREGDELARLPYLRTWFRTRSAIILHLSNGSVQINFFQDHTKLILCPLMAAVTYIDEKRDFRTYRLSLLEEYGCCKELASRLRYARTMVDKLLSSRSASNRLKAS

Compound: COC(=O)/C=C/c1ccccc1 [methyl cinnamate]
Test: log2 ratio of iodoacetamide-alkyne labeling of the cysteine site, DMSO over compound (competition); higher = stronger covalent engagement of the cysteine by the compound, active = 1 or more
Conditions: 500 µM; treatment time 1 h; system: HEK293T cell lysate
Procedure, shortened: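 HEK293T lysate at 2 mg/mL was treated with vehicle or electrophile (500 µM) for 1 h at ambient temperature, then labelled with iodoacetamide alkyne (1 h), clicked to sCIP-TMT reagents, pooled, digested with trypsin overnight at 37 °C, enriched on streptavidin and eluted with acid. Peptides were analysed by Orbitrap Eclipse LC-MS/MS with FAIMS and quantified in FragPipe, using duplicate channels and three replicates, with cysteines quantified in only one replicate excluded. The log2 competition ratio for each cysteine is the mean control-channel reporter intensity divided by the mean compound-channel reporter intensity.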

log2 ratio of iodoacetamide-alkyne labeling, inactive:
UniProt P55196_C1764 0.569, ADAR C622 (UniProt P55265) 0.0381, UniProt P60709_C285 0.0497, UniProt P55072_C572 0.0581, HNRNPF C290 (UniProt P52597) 0.169, PPP5C C77 (UniProt P53041) 0.0764, UniProt P55072_C105 0.0157, EEFSEC C93 (UniProt P57772) 0.205, COPA C380 (UniProt P53621) 0.181, UniProt P60660_C32 0.0554, KIF11 C819 (UniProt P52732) 0.28, UniProt P61927_C19 0.129, PLK1 C405 (UniProt P53350) 0.764, CTSC C258 (UniProt P53634) 0.0939
